The subject of one data set is additional tumor types. Briefly: LC-MS detection and over-presentation of the peptides on additional tumor types, cell lines and primary cultures. The arrangement: species or system human. To be noted: for Other relevant organs/ cancerous diseases: Table 4A: additional tumor types on which the peptide was found, over-presented on more than 5% of measured tumor samples, or presented on more than 5% with ratio of geometric means tumor vs normal tissues larger than 3; for Additional organs/cancerous diseases: amendment of Table 4: additional tumor types showing over-presentation (including specific presentation) on more than 5% of measured tumor samples, or presentation on more than 5% with ratio of geometric means tumor vs normal tissues larger than 3.

Another data set concerns ovarian cancer samples. Briefly: Relative LC-MS quantitation of HLA-presented peptides: presentation and over-presentation on ovarian cancer vs a panel of normal tissues (presentation score). The arrangement: species or system human; key: +++: very highly over-presented on tumors compared to a panel of normal tissues; ++: highly over-presented on tumors compared to a panel of normal tissues; +: over-presented on tumors compared to a panel of normal tissues. The note with it: over-presentation on tumors compared to a panel of normal tissues.

The values that follow come from patent publication US11230581B2, “Peptides and combination of peptides for use in immunotherapy against ovarian cancer and other cancers” (Immatics Biotechnologies GmbH, priority 2015, dated 2022).

On to “1 (SLMEPPAVLLL; listed as Homo sapiens) [compound 1]”, for which, in the data set on additional tumor types, the “Other relevant organs/ cancerous diseases” value is given as “NSCLC, SCLC, Esophageal Cancer” and the Additional organs/cancerous diseases entry was “BRCA, Urinary Bladder Cancer, Uterine Cancer, AML, HNSCC”. For the same substance, in the data set on ovarian cancer samples, the “Peptide Presentation (presentation score)” value (“Peptide Presentation” below) was “+++”.

Consider “2 (SLLEADPFL; listed as Homo sapiens) [compound 2]”, for which, in the data set on additional tumor types, the “Other relevant organs/ cancerous diseases” value is “Esophageal Cancer”; the Additional organs/cancerous diseases entry was “CLL, Uterine Cancer, Gallbladder Cancer and Bile Duct Cancer”. In addition, the “Peptide Presentation” value in the data set on ovarian cancer samples is given as “+++”.

Consider “3 (SLASKLTTL; listed as Homo sapiens) [compound 3]”, for which the Additional organs/cancerous diseases entry with additional tumor types is “Uterine Cancer”. The “Peptide Presentation” value with ovarian cancer samples is “+++”.

Take “5 (HLTEVYPEL; listed as Homo sapiens) [compound 5]”: in the data set with additional tumor types, the Additional organs/cancerous diseases entry is reported as “Urinary Bladder Cancer, Uterine Cancer”. Also, the “Peptide Presentation” value in the data set with ovarian cancer samples was “+++”.

With “6 (VLVSDGVHSV; listed as Homo sapiens) [compound 6]”, in the data set on additional tumor types, the “Other relevant organs/ cancerous diseases” value is “SCLC, Brain Cancer, BrCa, MCC, Esophageal Cancer” and the Additional organs/cancerous diseases result is “Melanoma, Urinary Bladder Cancer, Uterine Cancer, HNSCC”. Moreover, in the data set with ovarian cancer samples, the “Peptide Presentation” value is “+++”.

Consider “7 (SLVGLLLYL; listed as Homo sapiens) [compound 7]”, for which, in the data set with additional tumor types, the “Other relevant organs/ cancerous diseases” value is on record as “RCC, PC, BrCa”; the Additional organs/cancerous diseases result is “Gallbladder Cancer and Bile Duct Cancer, AML”. Also, the “Peptide Presentation” value in the data set on ovarian cancer samples is recorded as “+++”.

As for “8 (FTLGNVVGMYL; listed as Homo sapiens) [compound 8]”, the Additional organs/cancerous diseases entry in the data set on additional tumor types is listed as “Melanoma, Urinary Bladder Cancer, Uterine Cancer”. For the same substance, the “Peptide Presentation” value with ovarian cancer samples is “+++”.

As for “9 (GAAKDLPGV; listed as Homo sapiens) [compound 9]”, in the data set with additional tumor types, the “Other relevant organs/ cancerous diseases” value was “RCC, GC, HCC, Urinary bladder Cancer” and the Additional organs/cancerous diseases result is recorded as “Esophageal Cancer”. For the same substance, the “Peptide Presentation” value in the data set on ovarian cancer samples was “++”.

In the case of “10 (FLATFPLAAV; listed as Homo sapiens) [compound 10]”, the “Other relevant organs/ cancerous diseases” value in the data set with additional tumor types is “Urinary bladder Cancer”. Moreover, in the data set on ovarian cancer samples, the “Peptide Presentation” value was “+++”.

Turning to “13 (YLMDESLNL; listed as Homo sapiens) [compound 13]”, in the data set on additional tumor types, the Additional organs/cancerous diseases entry is “NSCLC, Brain Cancer, BRCA, Melanoma”. In addition, the “Peptide Presentation” value in the data set on ovarian cancer samples is recorded as “+++”.

Consider “14 (AAYGGLNEKSFV; listed as Homo sapiens) [compound 14]”, for which, in the data set on additional tumor types, the “Other relevant organs/ cancerous diseases” value is “HCC, Urinary bladder Cancer” and the Additional organs/cancerous diseases result is given as “CLL, Esophageal Cancer”. The “Peptide Presentation” value with ovarian cancer samples is reported as “+++”.

In the case of “15 (VLLTFKIFL; listed as Homo sapiens) [compound 15]”, in the data set on additional tumor types, the Additional organs/cancerous diseases entry is “Uterine Cancer, NHL”. Further, the “Peptide Presentation” value with ovarian cancer samples is “+++”.

“16 (VLFQGQASL; listed as Homo sapiens) [compound 16]”: the Additional organs/cancerous diseases entry with additional tumor types is recorded as “Melanoma, Uterine Cancer, AML, NHL”. Moreover, in the data set with ovarian cancer samples, the “Peptide Presentation” value is given as “++”.

In the case of “17 (GLLPGDRLVSV; listed as Homo sapiens) [compound 17]”, the “Other relevant organs/ cancerous diseases” value with additional tumor types was “NSCLC, SCLC, BrCa”. Moreover, the “Peptide Presentation” value with ovarian cancer samples is given as “+++”.

With “18 (YLVAKLVEV; listed as Homo sapiens) [compound 18]”, in the data set with additional tumor types, the Additional organs/cancerous diseases result is “NSCLC, BRCA, Urinary Bladder Cancer, HNSCC”. In the data set on ovarian cancer samples, the “Peptide Presentation” value is “+++”.

Consider “20 (RMIEYFIDV; listed as Homo sapiens) [compound 20]”, for which the “Other relevant organs/ cancerous diseases” value with additional tumor types is on record as “SCLC, HCC, MCC”. Also, the “Peptide Presentation” value in the data set with ovarian cancer samples is on record as “+++”.

Regarding “21 (VLDELDMEL; listed as Homo sapiens) [compound 21]”, the Additional organs/cancerous diseases entry in the data set with additional tumor types is on record as “Melanoma”. The “Peptide Presentation” value in the data set on ovarian cancer samples is reported as “+++”.

On to “23 (VLLDDIFAQL; listed as Homo sapiens) [compound 23]”, for which, in the data set on additional tumor types, the Additional organs/cancerous diseases result is given as “CLL, Uterine Cancer, AML”. Also, the “Peptide Presentation” value in the data set on ovarian cancer samples is reported as “+++”.

For the substance “24 (SLSDGLEEV; listed as Homo sapiens) [compound 24]”, in the data set on additional tumor types, the “Other relevant organs/ cancerous diseases” value is recorded as “CRC, PC, Urinary bladder Cancer” and the Additional organs/cancerous diseases result is “NSCLC, BRCA, Melanoma, Uterine Cancer, HNSCC”. In addition, the “Peptide Presentation” value in the data set on ovarian cancer samples was “++”.

Consider “26 (ALLELAEEL; listed as Homo sapiens) [compound 26]”, for which, in the data set with additional tumor types, the “Other relevant organs/ cancerous diseases” value is “Leukemia, Esophageal Cancer”; the Additional organs/cancerous diseases entry is “BRCA, Melanoma, Urinary Bladder Cancer, Uterine Cancer, Gallbladder Cancer and Bile Duct Cancer, AML, NHL, HNSCC”. For the same substance, in the data set with ovarian cancer samples, the “Peptide Presentation” value is on record as “+++”.

For “27 (ILADIVISA; listed as Homo sapiens) [compound 27]”, in the data set with additional tumor types, the “Other relevant organs/ cancerous diseases” value is “NSCLC, SCLC, PC, BrCa, Esophageal Cancer”; the Additional organs/cancerous diseases result is “Melanoma, Uterine Cancer, Gallbladder Cancer and Bile Duct Cancer”. Further, in the data set on ovarian cancer samples, the “Peptide Presentation” value is given as “+”.

With “28 (QLLDETSAITL; listed as Homo sapiens) [compound 28]”, in the data set with additional tumor types, the “Other relevant organs/ cancerous diseases” value is given as “SCLC, HCC, Leukemia, Urinary bladder Cancer” and the Additional organs/cancerous diseases result was “CLL”. In addition, the “Peptide Presentation” value in the data set on ovarian cancer samples is “+++”.

As for “29 (KMLGIPISNILMV; listed as Homo sapiens) [compound 29]”, the Additional organs/cancerous diseases entry in the data set on additional tumor types is “Urinary Bladder Cancer, Gallbladder Cancer and Bile Duct Cancer”. In the data set on ovarian cancer samples, the “Peptide Presentation” value is listed as “++”.

Regarding “30 (LILDWVPYI; listed as Homo sapiens) [compound 30]”, the Additional organs/cancerous diseases result with additional tumor types is given as “Melanoma, Uterine Cancer, HNSCC”. The “Peptide Presentation” value with ovarian cancer samples is listed as “++”.

For the substance “31 (YLAPELFVNV; listed as Homo sapiens) [compound 31]”, in the data set on additional tumor types, the “Other relevant organs/ cancerous diseases” value is given as “SCLC, GC, Leukemia, Melanoma” and the Additional organs/cancerous diseases entry is “BRCA, Uterine Cancer”. Besides, in the data set with ovarian cancer samples, the “Peptide Presentation” value is “+++”.

As for “32 (KLDDLTQDLTV; listed as Homo sapiens) [compound 32]”, in the data set with additional tumor types, the Additional organs/cancerous diseases entry was “SCLC, Esophageal Cancer, Urinary Bladder Cancer, Gallbladder Cancer and Bile Duct Cancer, HNSCC”. For the same substance, in the data set with ovarian cancer samples, the “Peptide Presentation” value is on record as “+++”.

Consider “33 (VLLSLLEKV; listed as Homo sapiens) [compound 33]”, for which, in the data set on additional tumor types, the “Other relevant organs/ cancerous diseases” value is recorded as “Leukemia” and the Additional organs/cancerous diseases entry is “CLL, Melanoma”. The “Peptide Presentation” value with ovarian cancer samples is reported as “++”.

Take “34 (ILVEADSLWVV; listed as Homo sapiens) [compound 34]”: in the data set with additional tumor types, the “Other relevant organs/ cancerous diseases” value is recorded as “SCLC, PrC, Leukemia, Melanoma” and the Additional organs/cancerous diseases entry is “AML”. In the data set with ovarian cancer samples, the “Peptide Presentation” value is listed as “+++”.

In the case of “36 (YVLEDLEVTV; listed as Homo sapiens) [compound 36]”, in the data set on additional tumor types, the “Other relevant organs/ cancerous diseases” value is “SCLC, HCC, Leukemia”; the Additional organs/cancerous diseases entry is “NSCLC, CLL, BRCA, Melanoma, Urinary Bladder Cancer, Uterine Cancer, Gallbladder Cancer and Bile Duct Cancer, NHL, HNSCC”. Besides, the “Peptide Presentation” value with ovarian cancer samples was “+++”.

In the case of “38 (FLLEDDIHVS; listed as Homo sapiens) [compound 38]”, in the data set on additional tumor types, the “Other relevant organs/ cancerous diseases” value is recorded as “SCLC, Leukemia, Melanoma” and the Additional organs/cancerous diseases result is “CLL, Urinary Bladder Cancer, NHL”. In addition, in the data set on ovarian cancer samples, the “Peptide Presentation” value is reported as “+++”.

Turning to “40 (TLLVKVFSV; listed as Homo sapiens) [compound 40]”, the Additional organs/cancerous diseases result in the data set on additional tumor types is “Melanoma”. Besides, the “Peptide Presentation” value in the data set on ovarian cancer samples is given as “+++”.

As for “42 (VLLQKIVSA; listed as Homo sapiens) [compound 42]”, the Additional organs/cancerous diseases result in the data set on additional tumor types is “Esophageal Cancer, AML”. Further, in the data set on ovarian cancer samples, the “Peptide Presentation” value is listed as “+++”.

In the case of “43 (VLSSLEINI; listed as Homo sapiens) [compound 43]”, in the data set with additional tumor types, the Additional organs/cancerous diseases entry was “NHL”. In the data set on ovarian cancer samples, the “Peptide Presentation” value is given as “+”.

“45 (SLWQDIPDV; listed as Homo sapiens) [compound 45]”: in the data set on additional tumor types, the “Other relevant organs/ cancerous diseases” value is “NSCLC, SCLC” and the Additional organs/cancerous diseases result is “BRCA, Urinary Bladder Cancer, HNSCC”. The “Peptide Presentation” value in the data set on ovarian cancer samples is “+++”.

“47 (ILLSVPLLVV; listed as Homo sapiens) [compound 47]”: in the data set on additional tumor types, the “Other relevant organs/ cancerous diseases” value was “SCLC, Leukemia, Gallbladder Cancer, Bile Duct Cancer” and the Additional organs/cancerous diseases entry is “CLL, Uterine Cancer”. In the data set with ovarian cancer samples, the “Peptide Presentation” value is on record as “+++”.

With “48 (ALAELYEDEV; listed as Homo sapiens) [compound 48]”, in the data set with additional tumor types, the “Other relevant organs/ cancerous diseases” value was “SCLC, Brain Cancer, HCC, Leukemia, Melanoma, Uterine Cancer”. Further, the “Peptide Presentation” value in the data set with ovarian cancer samples is “+++”.

Consider “51 (LLPDLEFYV; listed as Homo sapiens) [compound 51]”, for which, in the data set with additional tumor types, the “Other relevant organs/ cancerous diseases” value was “SCLC, PrC, Gallbladder Cancer, Bile Duct Cancer” and the Additional organs/cancerous diseases result was “Melanoma, Urinary Bladder Cancer”. In the data set on ovarian cancer samples, the “Peptide Presentation” value is “+++”.

In the case of “471 (YLYNNMIAKI; listed as Homo sapiens) [compound 471]”, the “Peptide Presentation” value with ovarian cancer samples is on record as “+++”.

Consider “515 (LLQELVLFL; listed as Homo sapiens) [compound 515]”, for which, in the data set with ovarian cancer samples, the “Peptide Presentation” value was “+++”.

Regarding “516 (AVGPASILKEV; listed as Homo sapiens) [compound 516]”, the “Peptide Presentation” value with ovarian cancer samples is listed as “+++”.
